# Experimental data from PubChem BioAssay AID493014 (National Center for Advancing Translational Sciences (NCATS), 2011).
# “And” between values parts separate entries of the source, which are not always exact repeats. Identical values can stand only once. Some of the results follow. These are further read-outs of the screen, such as a control signal, another cell line or another target. No call is given for them. Compounds called inactive in the main read-out are mostly missing here. The note in brackets gives the kind of curve behind each potency; many fits are weak.
# Assay: qHTS Assay to Find Inhibitors of Chronic Active B-Cell Receptor Signaling
# Details: ABC-DLBCL IkBa-CBG/CBR reporter, luminescence ratio (green luciferase fused to IkBa over red control in TMD8 lymphoma cells), 4 h
# Method in brief: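 Concentration-response series (up to 46 uM) were applied to TMD8 dual-reporter cells for 4 h at 37C with doxycycline. Green/red ratio, after filter-overlap correction, defined %Activity; red signal alone was normalised to basal cells and zero luminescence.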
# [1] = measured here: CBR red luminescence, cell number
# [2] = measured here: IkBa-CBG green luminescence
compound,measurement,setting,value
CCCNC(=O)CNC(=S)N(Cc1cc(OC)c(OC)c(OC)c1)C1CCCC1,AC50,[1],"29.1 µM [rising, single point]"
CC1CC(=O)N(CC(=O)Nc2ccc3c(c2)OCO3)c2ccccc2S1 (stereo unspecified),AC50,[1],"3.98 µM [falling, single point]"
CC(=O)Oc1ccc(-c2cccc(C(=O)NCCO)c2)cc1,AC50,[1],"35.5 µM [falling, single point]"
CCCOc1ccc2nc(C)c(CCC)c(SC(=N)N)c2c1,AC50,[1],"8.91 µM [rising, partial curve, poor fit]"
O=C(CNC(=O)N1CC(=O)Nc2ccccc21)Nc1cc(Cl)ccc1Cl,AC50,[1],"3.98 µM [falling, partial curve, poor fit]"
COCCCNc1nc(N)c([N+](=O)[O-])c(NCc2ccccc2)n1,AC50,[1],"20 µM [rising, single point]"
O=C(COC(=O)c1cccc(NS(=O)(=O)c2ccc(F)c(F)c2)c1)NC(=O)NC1CCCC1,AC50,[1],"23.1 µM [falling, single point]"
Cc1ccc(C)c(C(=O)COc2ccccc2[N+](=O)[O-])c1,AC50,[1],"29.1 µM [falling, single point]"
O=C(c1cnc(N2CCN(c3ncccn3)CC2)c2ccccc12)N1CCN(c2ccccn2)CC1,AC50,[1],"22.4 µM [falling, single point]"
CCOC(=O)c1c(NC(=O)C2COc3ccccc3O2)sc(C(C)=O)c1C (stereo unspecified),AC50,[1],"32.6 µM [rising, single point]"
CCOC(=O)c1cc([N+](=O)[O-])c([N+](=O)[O-])cc1NC(C)=O,AC50,[1],"29.1 µM [falling, single point]"
CCOC(=O)C1CCN(C(c2ccccn2)c2c(C)[nH]c3ccccc23)CC1 (stereo unspecified),AC50,[1],"1.64 µM [falling, full curve]"
CC(C)(C)C1CCC(=NNC(=O)c2ccc(Br)o2)CC1 (stereo unspecified),AC50,[1],"29.1 µM [falling, single point]"
COc1cccc(NC(=O)c2ccc3c(c2)N(CC(=O)N2CCCCC2)C(=O)C(C)(C)O3)c1,AC50,[1],"12.6 µM [falling, partial curve, poor fit]"
COc1ccc2c(c1)[nH]c1c(=O)n(CC3CCCO3)cnc12 (stereo unspecified),AC50,[1],"3.26 µM [falling, full curve, poor fit]"
CCCN1CNC(=S)N(c2ccccc2C)C1,AC50,[1],"35.5 µM [falling, single point]"
CC(=O)c1c(C)[nH]c(C(=O)OCC(=O)Nc2ccc(Cl)c(S(=O)(=O)N(C)C)c2)c1C,AC50,[1],"12.6 µM [falling, partial curve]"
CC(C)(C)C(=O)/C=C/Nc1ccccc1O,AC50,[1],"2.31 µM [falling, partial curve, poor fit]"
CCc1ccc(CNC(=O)Cn2nc(-c3ccc(C)cc3)ccc2=O)cc1,AC50,[1],"794 nM [rising, full curve, poor fit] and 35.5 µM [falling, partial curve, poor fit]"
CCn1c(SCc2ccc(C#N)cc2)nnc1-c1ccc(S(=O)(=O)N2CCCCC2)cc1,AC50,[1],"35.5 µM [falling, single point]"
Cc1cccc(S(=O)(=O)c2c(N)n(/N=C/c3cccnc3)c3nc4ccccc4nc23)c1,AC50,[1],"2.82 µM [falling, single point]"
CNC(=S)N/N=C(\C)c1cccc(C(F)(F)F)c1,AC50,[1],"14.1 µM [rising, single point]"
same,AC50,[2],"25.1 µM [falling, single point]"
Cc1ccc(C2=C/C(=C/c3cccs3)C(=O)O2)cc1,AC50,[1],"1.46 µM [falling, full curve]"
COc1ccccc1N1CCN(C(=O)CCS(=O)(=O)c2ccc3c(c2)oc(=O)n3C)CC1,AC50,[1],"20 µM [rising, single point]"
Fc1ccc(-n2ncc3c(Nc4ccc5c(c4)OCCO5)ncnc32)cc1,AC50,[1],"7.08 µM [falling, full curve]"
NC(=O)COc1ccc2cc(-c3ccccc3)c(=O)oc2c1,AC50,[1],"11.2 µM [falling, single point]"
COc1cc(C=O)ccc1OCCOCCOc1cc(C)ccc1Cl,AC50,[1],"10 µM [rising, partial curve]"
Cc1nc(NC(=O)/C=C/c2ccccc2)sc1C(=O)NCCO,AC50,[1],"2 µM [falling, full curve]"
O=C(O)c1ccccc1SCc1cn2cc(Cl)ccc2n1,AC50,[1],"0.708 µM [rising, partial curve, poor fit]"
COc1ccc(-c2csc(-c3ccc(O)cc3)n2)cc1,AC50,[2],"20 µM [falling, partial curve, poor fit]"
Cc1occc1-c1nnc(SCC(=O)Nc2nc(-c3ccccc3)cs2)o1,AC50,[1],"13 µM [rising, partial curve, poor fit]"
C/C=C/CSc1nc2c(c(=O)[nH]c(=O)n2C)n1C(C)C,AC50,[1],"3.16 µM [rising, full curve, poor fit]"
Cc1nc(-n2ncc(C#N)c2N)c2c3c(sc2n1)CCC3,AC50,[1],"0.13 µM [rising, full curve, poor fit]"
O=C(c1ccccc1)c1c2c(cc3sc4ccccc4[n+]13)-c1cccc3cccc-2c13,AC50,[1],"29.1 µM [falling, single point]"
COc1cccc(C(C2C(=O)CC(C)(C)CC2=O)C2C(=O)CC(C)(C)CC2=O)c1,AC50,[1],"3.16 µM [rising, single point]"
O=c1[nH]c2ccccc2nc1NCc1ccccc1,AC50,[1],"12.6 µM [falling, single point]"
O=C(Nc1nnc(-c2ccccc2F)s1)c1ccccc1F,AC50,[1],"3.16 µM [falling, partial curve]"
Clc1ccc(-c2nnc(-c3cccnc3)o2)cc1,AC50,[1],"20 µM [rising, single point]"
Cc1cccc(OCCC(=O)Nc2ccc(F)c(F)c2)c1,AC50,[1],"3.55 µM [falling, partial curve, poor fit]"
Cc1csc(NC(=O)CSc2nnc(-c3cc(C)on3)o2)n1,AC50,[1],"29.1 µM [falling, single point]"
COc1ccc(NC(=O)O/N=C/c2ccc(N(C)C)cc2)cc1,AC50,[1],"35.5 µM [falling, single point]"
CC(=O)N1N=C(c2ccc(C)cc2)OC1c1ccc(C)cc1 (stereo unspecified),AC50,[1],"14.6 µM [rising, partial curve, poor fit]"
O=C(c1nc2n(n1)C(c1ccc(Cl)cc1)C=C(c1ccccc1)N2)N1CCOCC1 (stereo unspecified),AC50,[1],"6.51 µM [rising, single point]"
CC(=O)c1nnn(-c2ccc([N+](=O)[O-])cc2C)c1C,AC50,[1],"3.98 µM [rising, partial curve, poor fit]"
Cc1cc(Cl)cc(Br)c1OCCCN1C(=O)NC(C)(C)C1=O,AC50,[1],"29.1 µM [falling, single point]"
CCOc1cccc2sc(N(CCN(C)C)C(=O)c3cc4ccccc4cc3OC)nc12,AC50,[1],"12.6 µM [falling, partial curve, poor fit]"
same,AC50,[2],"17.8 µM [rising, partial curve, poor fit]"
CCCN1C(=O)c2cc(C(=O)Nc3ccccc3C)ccc2C1Nc1ccccc1C (stereo unspecified),AC50,[1],"22.4 µM [falling, single point]"
Cc1ccc(Nc2nnc(-c3ccncc3)s2)c(Br)c1,AC50,[1],"11.6 µM [falling, partial curve]"
COc1ccc(C(=O)Nc2ccc(Cl)cc2C(=O)N2CCOCC2)cc1,AC50,[1],"7.08 µM [rising, partial curve, poor fit]"
S=c1[nH]nc(-c2cc(-c3ccccc3)n[nH]2)n1/N=C/C(Br)=C/c1ccccc1,AC50,[1],"12.6 µM [falling, single point]"
CN(C)c1cccc(C(=O)Nc2cccc(F)c2)c1,AC50,[1],"0.651 µM [rising, full curve]"
COC(=O)C(C#N)C(=C1C(=O)CC(C)(C)CC1=O)c1ccc(O)cc1 (stereo unspecified),AC50,[1],"29.1 µM [falling, single point]"
COc1cc(C(=O)N2CCN(c3ncnc4sc(C)c(C)c34)CC2)cc(OC)c1OC,AC50,[1],"28.2 µM [falling, partial curve, poor fit]"
CCN(CC)c1nc(C)c(C(=S)Nc2cc([N+](=O)[O-])ccc2Cl)s1,AC50,[1],"3.98 µM [rising, full curve]"
COc1ccc(C(=O)COC(=O)CN2CC(=O)Oc3ccccc32)cc1Br,AC50,[1],"18.4 µM [falling, partial curve]"
CN(C(=S)NC(=O)Cc1ccccc1)c1ccccc1,AC50,[1],"35.5 µM [falling, single point]"
same,AC50,[2],"25.1 µM [falling, single point]"
COc1ccccc1C1C=C(c2ccc(C(C)C)cc2)Nc2nnnn21 (stereo unspecified),AC50,[1],"0.398 µM [rising, full curve, poor fit]"
CCOC(=O)CC1C(=O)NCCN1c1nc2ccc(C)cn2c(=O)c1/C=C1\SC(=S)N(C(C)CC)C1=O (stereo unspecified),AC50,[1],"3.98 µM [falling, full curve, poor fit]"
Cc1nc2cc(NC(=O)Nc3nccs3)ccc2n1C,AC50,[1],"0.58 µM [falling, full curve, poor fit]"
Cc1noc2ncnc(Sc3ccc(Br)cc3)c12,AC50,[1],"2.82 µM [falling, partial curve, poor fit]"
CC(=O)c1cccc(NC(=S)NNC(=O)c2ccco2)c1,AC50,[1],"22.4 µM [falling, single point]"
CCOc1ccc(NC(=NCc2ccc3c(c2)OCO3)SC2CC(=O)N(c3ccc(OCC)cc3)C2=O)cc1 (stereo unspecified),AC50,[1],"13 µM [rising, partial curve, poor fit]"
CC(C)C[C@H]1CN=C(Nc2ccccc2)N1CCC(C)c1ccccc1 (stereo partly specified),AC50,[1],"29.1 µM [falling, single point]"
